# Assay results reported in the supplement of paper PMC8728848.
# The other results are listed elsewhere or left out.
# B1: BSR4 (Toxoplasma gondii), Q95NL6 (protein)
# chain: MVMMGSMQQRRGGLRSNARQLLAVCMSGVVFFSSGQAVADNLLEGLLHRTLQQQVEVTSRLTVAGSDAKCDFFTPATQDSPPVSGSLTLSKGRMTATFECSATQALSISTIPTNIEQNVCDPKKTTNGTVCQFGANGSAGTEVTLKDLLETDRIVNWKVNEQREESNKSQKWSLELHNEDLPLTDKAFVVGCQATSAARGTESGKTAACKLTVNVEARASSLAENNVVTCAYGKGSNPNPVEVEMSTEKNTLTINCGSDGSLQPTTYAEEYCVADSKDVNRCSTTRFVEIFPKFLKSWWVTETQKRTSATLTIPQTDLPEADQQFLVGCVPKKTAPEDPKKDKESGTETGAPTSCTVLVTVKAASSASHASPTVQILAAASSAAA
# Key:
# Test in all cases: glycan array binding signal (z-score within array); higher = stronger binding
# Settings in all cases: glycan notation: IUPAC condensed, linker removed
# [1] = target: Gal(b1-3)GalNAc(a1-3)[Fuc(a1-2)]Gal(b1-4)GlcNAc
# Summary of the method: (§1)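 The binding signal is a Z-score computed within each array. Data were drawn from 3228 arrays in the Consortium for Functional Glycomics database, restricted to those with a known protein sequence. Scores were averaged over arrays of the same protein sequence at different concentrations or buffers, and over linkers, and negative values can be taken as non-binding.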
# [2] = target: Gal(b1-3)GalNAc(b1-3)Gal(a1-4)Gal(b1-4)Glc
# Summary of the method: as §1
# [3] = target: Gal(b1-3)GalNAc(b1-4)Gal(b1-4)Glc
# Summary of the method: as §1
# [4] = target: Gal(b1-3)GalNAc(b1-4)[Neu5Ac(a2-3)]Gal(b1-4)Glc
# Summary of the method: as §1
# Gal(b1-3)GlcNAc = target: Gal(b1-3)GlcNAc
# Summary of the method: as §1
# [5] = target: Gal(b1-3)GlcNAc(a1-6)Gal(b1-4)GlcNAc
# Summary of the method: as §1
# [6] = target: Gal(b1-3)GlcNAc(b1-2)Man(a1-3)[Gal(b1-3)GlcNAc(b1-2)Man(a1-6)]Man(b1-4)GlcNAc(b1-4)GlcNAc
# Summary of the method: as §1
# [7] = target: Gal(b1-3)GlcNAc(b1-2)Man(a1-3)[Gal(b1-3)GlcNAc(b1-2)Man(a1-6)]Man(b1-4)GlcNAc(b1-4)[Fuc(a1-6)]GlcNAc
# Summary of the method: as §1
# [8] = target: Gal(b1-3)GlcNAc(b1-3)Gal(b1-3)GlcNAc
# Summary of the method: as §1
# [9] = target: Gal(b1-3)GlcNAc(b1-3)Gal(b1-4)Glc
# Summary of the method: as §1
# [10] = target: Gal(b1-3)GlcNAc(b1-3)Gal(b1-4)GlcNAc
# Summary of the method: as §1
# [11] = target: Gal(b1-3)GlcNAc(b1-3)Gal(b1-4)GlcNAc(b1-6)[Gal(b1-3)GlcNAc(b1-3)]Gal(b1-4)Glc
# Summary of the method: as §1
# [12] = target: Gal(b1-3)GlcNAc(b1-3)Gal(b1-4)[Fuc(a1-3)]GlcNAc(b1-6)[Gal(b1-3)GlcNAc(b1-3)]Gal(b1-4)Glc
# Summary of the method: as §1
# [13] = target: Gal(b1-3)GlcNAc(b1-3)GalNAc
# Summary of the method: as §1
# [14] = target: Gal(b1-3)GlcNAc(b1-6)Gal(b1-4)GlcNAc
# Summary of the method: as §1
# [15] = target: Gal(b1-3)[Fuc(a1-4)]GlcNAc
# Summary of the method: as §1
# [16] = target: Gal(b1-3)[Fuc(a1-4)]GlcNAc(b1-2)Man(a1-3)[Gal(b1-3)[Fuc(a1-4)]GlcNAc(b1-2)Man(a1-6)]Man(b1-4)GlcNAc(b1-4)GlcNAc
# Summary of the method: as §1
# [17] = target: Gal(b1-3)[Fuc(a1-4)]GlcNAc(b1-2)Man(a1-3)[Gal(b1-3)[Fuc(a1-4)]GlcNAc(b1-2)Man(a1-6)]Man(b1-4)GlcNAc(b1-4)[Fuc(a1-6)]GlcNAc
# Summary of the method: as §1
# [18] = target: Gal(b1-3)[Fuc(a1-4)]GlcNAc(b1-3)Gal(b1-3)[Fuc(a1-4)]GlcNAc
# Summary of the method: as §1
# [19] = target: Gal(b1-3)[Fuc(a1-4)]GlcNAc(b1-3)Gal(b1-4)GlcNAc
# Summary of the method: as §1
# [20] = target: Gal(b1-3)[Fuc(a1-4)]GlcNAc(b1-3)Gal(b1-4)[Fuc(a1-3)]GlcNAc
# Summary of the method: as §1
# [21] = target: Gal(b1-3)[GlcNAc(b1-6)]GalNAc
# Summary of the method: as §1
# [22] = target: Gal(b1-3)[Neu5Ac(a2-6)]GalNAc
# Summary of the method: as §1
# [23] = target: Gal(b1-3)[Neu5Ac(a2-6)]GlcNAc(b1-6)Gal(b1-4)Glc
# Summary of the method: as §1
# [24] = target: Gal(b1-3)[Neu5Ac(b2-6)]GalNAc
# Summary of the method: as §1
# [25] = target: Gal(b1-4)GalNAc(a1-3)[Fuc(a1-2)]Gal(b1-4)GlcNAc
# Summary of the method: as §1
# [26] = target: Gal(b1-4)GalNAc(b1-3)[Fuc(a1-2)]Gal(b1-4)GlcNAc
# Summary of the method: as §1
# Gal(b1-4)Glc = target: Gal(b1-4)Glc
# Summary of the method: as §1
# Gal(b1-4)Glc6S = target: Gal(b1-4)Glc6S
# Summary of the method: as §1
# Gal(b1-4)GlcNAc = target: Gal(b1-4)GlcNAc
# Summary of the method: as §1
# [27] = target: Gal(b1-4)GlcNAc(a1-6)Gal(b1-4)GlcNAc
# Summary of the method: as §1
# [28] = target: Gal(b1-4)GlcNAc(b1-2)Man(a1-3)Man(b1-4)GlcNAc(b1-4)GlcNAc
# Summary of the method: as §1
# [29] = target: Gal(b1-4)GlcNAc(b1-2)Man(a1-3)[Gal(b1-4)GlcNAc(b1-2)Man(a1-6)]Man(b1-4)GlcNAc(b1-4)GlcNAc
# Summary of the method: as §1
# [30] = target: Gal(b1-4)GlcNAc(b1-2)Man(a1-3)[Gal(b1-4)GlcNAc(b1-2)Man(a1-6)]Man(b1-4)GlcNAc(b1-4)[Fuc(a1-6)]GlcNAc
# Summary of the method: as §1
# [31] = target: Gal(b1-4)GlcNAc(b1-2)Man(a1-3)[GlcNAc(b1-2)Man(a1-6)]Man(b1-4)GlcNAc(b1-4)GlcNAc
# Summary of the method: as §1
# [32] = target: Gal(b1-4)GlcNAc(b1-2)Man(a1-3)[Man(a1-6)]Man(b1-4)GlcNAc(b1-4)GlcNAc
# Summary of the method: as §1
# [33] = target: Gal(b1-4)GlcNAc(b1-2)Man(a1-6)Man(b1-4)GlcNAc(b1-4)GlcNAc
# Summary of the method: as §1
binder,measurement,setting,value
B1,glycan array binding signal (z-score),[1],-0.147
same,glycan array binding signal (z-score),[2],-0.349
same,glycan array binding signal (z-score),[3],-0.183
same,glycan array binding signal (z-score),[4],-0.254
same,glycan array binding signal (z-score),Gal(b1-3)GlcNAc,-0.694
same,glycan array binding signal (z-score),[5],-0.08
same,glycan array binding signal (z-score),[6],-0.329
same,glycan array binding signal (z-score),[7],-0.009
same,glycan array binding signal (z-score),[8],-0.905
same,glycan array binding signal (z-score),[9],-0.024
same,glycan array binding signal (z-score),[10],-0.006
same,glycan array binding signal (z-score),[11],-0.158
same,glycan array binding signal (z-score),[12],-0.207
same,glycan array binding signal (z-score),[13],0.256
same,glycan array binding signal (z-score),[14],0.471
same,glycan array binding signal (z-score),[15],0.114
same,glycan array binding signal (z-score),[16],1.39
same,glycan array binding signal (z-score),[17],0.107
same,glycan array binding signal (z-score),[18],-0.029
same,glycan array binding signal (z-score),[19],0.277
same,glycan array binding signal (z-score),[20],0.393
same,glycan array binding signal (z-score),[21],-0.408
same,glycan array binding signal (z-score),[22],-0.014
same,glycan array binding signal (z-score),[23],-0.387
same,glycan array binding signal (z-score),[24],-0.12
same,glycan array binding signal (z-score),[25],0.377
same,glycan array binding signal (z-score),[26],0.315
same,glycan array binding signal (z-score),Gal(b1-4)Glc,-0.439
same,glycan array binding signal (z-score),Gal(b1-4)Glc6S,0.38
same,glycan array binding signal (z-score),Gal(b1-4)GlcNAc,-0.355
same,glycan array binding signal (z-score),[27],0.035
same,glycan array binding signal (z-score),[28],-0.691
same,glycan array binding signal (z-score),[29],0.038
same,glycan array binding signal (z-score),[30],0.794
same,glycan array binding signal (z-score),[31],-0.349
same,glycan array binding signal (z-score),[32],0.292
same,glycan array binding signal (z-score),[33],-0.338

# A different layout for some results above.
binder	measurement	setting	value
B1	glycan array binding signal (z-score)	[29]	0.038
same	glycan array binding signal (z-score)	[30]	0.794
